These are yes or no findings as the source states them, for the method shown. In cells and extracts the contact can be indirect.
Target: EGFR (human (endogenous in KBv200 and MCF-7/adr)) (UniProt P00533)
Experiment: co-IP; KBv200 and MCF-7/adr cells treated with a range of concentrations of cetuximab for 48 h, lysed in RIPA; precleared lysate (1 mg total protein) incubated with 2 ug anti-EGFR antibody or anti-IgG antibody, protein G-agarose overnight at 4 C; Western blot with anti-ABCB1

## ABCB1/P-glycoprotein (from UniProt P08183 1-1280)
  binding: no binding

From PMC4747373
